Here are results for 4 substances from patent US20130108658A1 (published 2013).

Sequences of proteins named here, by UniProt entry; tags and fusion partners are left off. A change or cut given only in a name is not applied to a line headed by its entry.
UniProt P06756: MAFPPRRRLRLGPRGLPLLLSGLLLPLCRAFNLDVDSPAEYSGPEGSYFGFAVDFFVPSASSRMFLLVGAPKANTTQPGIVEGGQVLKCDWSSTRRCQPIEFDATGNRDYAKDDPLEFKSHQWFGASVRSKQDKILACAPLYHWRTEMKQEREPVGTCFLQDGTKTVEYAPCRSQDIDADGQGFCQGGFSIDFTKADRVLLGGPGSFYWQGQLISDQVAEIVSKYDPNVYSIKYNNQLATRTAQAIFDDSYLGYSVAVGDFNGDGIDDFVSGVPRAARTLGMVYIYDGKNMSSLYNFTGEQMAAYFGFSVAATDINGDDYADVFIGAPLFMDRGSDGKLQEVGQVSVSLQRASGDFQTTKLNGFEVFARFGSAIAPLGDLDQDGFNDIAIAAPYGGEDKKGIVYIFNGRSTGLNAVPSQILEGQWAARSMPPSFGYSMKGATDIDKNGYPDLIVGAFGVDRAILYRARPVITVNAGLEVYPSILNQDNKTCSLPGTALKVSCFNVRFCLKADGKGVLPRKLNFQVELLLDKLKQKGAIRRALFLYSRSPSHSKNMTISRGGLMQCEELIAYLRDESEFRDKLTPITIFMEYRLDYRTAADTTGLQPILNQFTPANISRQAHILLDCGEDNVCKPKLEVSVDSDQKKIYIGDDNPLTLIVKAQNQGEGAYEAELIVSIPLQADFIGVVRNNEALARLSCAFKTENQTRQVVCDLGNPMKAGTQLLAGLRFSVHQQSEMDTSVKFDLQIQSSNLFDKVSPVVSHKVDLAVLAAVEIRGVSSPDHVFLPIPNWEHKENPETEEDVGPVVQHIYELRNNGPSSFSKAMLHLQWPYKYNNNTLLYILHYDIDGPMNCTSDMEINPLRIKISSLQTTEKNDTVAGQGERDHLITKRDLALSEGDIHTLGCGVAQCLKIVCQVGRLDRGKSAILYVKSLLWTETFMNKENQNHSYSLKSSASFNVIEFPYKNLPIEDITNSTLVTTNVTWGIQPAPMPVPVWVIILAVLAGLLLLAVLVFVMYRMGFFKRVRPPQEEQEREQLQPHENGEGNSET

No constants are given. Whether binding was seen depends on the method and setting. Some results given as binding are weak or reduced against the parent protein; the word gives no strength.

This test has as its target purified αvβ3 integrin (CHEMICON) (UniProt P06756). The test is described as follows: A20-capture ELISA, purified αvβ3 integrin 100 ng/well, normalised to A20-biot. For orientation: ELISA stands for enzyme-linked immunosorbent assay.
Take “AAV2 RGD4C 453 (from UniProt P03135 1-453; P03135 454-735)”: the binding result is given as “binds”.
As for “AAV2 RGD4C 453 A2 (from UniProt P03135 1-453; P03135 454-735)”, the binding entry was “binds”.
As for “AAV2 RGD4C 587 (from UniProt P03135 1-587; P03135 588-735)”, the binding entry is reported as “binds”.
The result for “AAV2 RGD4C 587 A2 (from UniProt P03135 1-587; P03135 588-735)” reads “binds”.
